According to article PMC10558657:
Like-named read-outs stand apart in the source and are kept apart here. No constants are given. Whether binding was seen depends on the method and setting. In cells and extracts the contact can be indirect. Some results given as binding are weak or reduced against the parent protein; the word gives no strength. For part of these data: Where a sequence is shown, tags or fusion partners need not be part of it. Values belong to the molecule of their own block, whether it stands above or below them.

The chains behind the UniProt entries cited, without tags or fusion partners.
UniProt Q86WV6: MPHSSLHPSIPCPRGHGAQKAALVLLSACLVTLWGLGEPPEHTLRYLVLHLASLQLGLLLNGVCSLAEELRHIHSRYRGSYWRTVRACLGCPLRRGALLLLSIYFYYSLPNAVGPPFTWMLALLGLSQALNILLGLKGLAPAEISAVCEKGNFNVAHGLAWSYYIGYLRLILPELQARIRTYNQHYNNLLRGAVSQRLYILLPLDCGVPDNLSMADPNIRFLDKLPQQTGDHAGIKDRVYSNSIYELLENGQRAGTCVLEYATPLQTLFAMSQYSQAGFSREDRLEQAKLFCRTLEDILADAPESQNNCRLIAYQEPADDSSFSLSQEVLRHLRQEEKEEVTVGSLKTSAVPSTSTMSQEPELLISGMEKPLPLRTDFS

Legend:
[1] = biological target: T1, IRHOM2 C476A mutant (human) (UniProt Q6PJF5); assay: co-IP; Co-IP of IRHOM2 (WT or C476A) from THLE2 cells, blots for partner proteins; with or without ZDHHC3, 2-BP, ZDHHC3 knockout or ZDHHC3 C157A
T1 sequence: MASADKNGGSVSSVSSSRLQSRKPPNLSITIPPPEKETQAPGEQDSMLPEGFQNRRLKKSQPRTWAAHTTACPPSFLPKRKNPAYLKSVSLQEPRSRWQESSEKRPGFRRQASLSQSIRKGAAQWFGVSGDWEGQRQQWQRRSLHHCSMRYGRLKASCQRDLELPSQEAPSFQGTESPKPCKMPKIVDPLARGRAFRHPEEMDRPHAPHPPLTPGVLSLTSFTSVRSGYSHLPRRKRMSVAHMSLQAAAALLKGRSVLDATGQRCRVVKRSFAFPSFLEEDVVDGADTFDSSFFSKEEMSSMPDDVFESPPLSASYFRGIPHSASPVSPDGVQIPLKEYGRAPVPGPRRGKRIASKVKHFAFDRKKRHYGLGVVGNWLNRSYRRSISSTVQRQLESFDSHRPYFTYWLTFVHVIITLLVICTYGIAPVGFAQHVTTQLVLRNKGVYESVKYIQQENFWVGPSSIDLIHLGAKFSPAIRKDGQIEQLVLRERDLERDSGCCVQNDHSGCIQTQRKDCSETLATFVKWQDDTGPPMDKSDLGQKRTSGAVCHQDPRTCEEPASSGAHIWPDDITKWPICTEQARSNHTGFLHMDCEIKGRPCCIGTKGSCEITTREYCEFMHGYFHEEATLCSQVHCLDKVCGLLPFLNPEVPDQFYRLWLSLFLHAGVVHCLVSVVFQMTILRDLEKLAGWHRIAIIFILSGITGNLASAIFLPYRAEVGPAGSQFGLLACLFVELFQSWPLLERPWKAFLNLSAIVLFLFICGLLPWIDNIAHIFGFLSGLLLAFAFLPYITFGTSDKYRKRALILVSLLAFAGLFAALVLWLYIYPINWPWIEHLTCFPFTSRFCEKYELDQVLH

[2] = biological target: T2, IRHOM2 (WT) precipitated from THLE2 cells (human) (UniProt Q6PJF5); assay: as above
T2 sequence: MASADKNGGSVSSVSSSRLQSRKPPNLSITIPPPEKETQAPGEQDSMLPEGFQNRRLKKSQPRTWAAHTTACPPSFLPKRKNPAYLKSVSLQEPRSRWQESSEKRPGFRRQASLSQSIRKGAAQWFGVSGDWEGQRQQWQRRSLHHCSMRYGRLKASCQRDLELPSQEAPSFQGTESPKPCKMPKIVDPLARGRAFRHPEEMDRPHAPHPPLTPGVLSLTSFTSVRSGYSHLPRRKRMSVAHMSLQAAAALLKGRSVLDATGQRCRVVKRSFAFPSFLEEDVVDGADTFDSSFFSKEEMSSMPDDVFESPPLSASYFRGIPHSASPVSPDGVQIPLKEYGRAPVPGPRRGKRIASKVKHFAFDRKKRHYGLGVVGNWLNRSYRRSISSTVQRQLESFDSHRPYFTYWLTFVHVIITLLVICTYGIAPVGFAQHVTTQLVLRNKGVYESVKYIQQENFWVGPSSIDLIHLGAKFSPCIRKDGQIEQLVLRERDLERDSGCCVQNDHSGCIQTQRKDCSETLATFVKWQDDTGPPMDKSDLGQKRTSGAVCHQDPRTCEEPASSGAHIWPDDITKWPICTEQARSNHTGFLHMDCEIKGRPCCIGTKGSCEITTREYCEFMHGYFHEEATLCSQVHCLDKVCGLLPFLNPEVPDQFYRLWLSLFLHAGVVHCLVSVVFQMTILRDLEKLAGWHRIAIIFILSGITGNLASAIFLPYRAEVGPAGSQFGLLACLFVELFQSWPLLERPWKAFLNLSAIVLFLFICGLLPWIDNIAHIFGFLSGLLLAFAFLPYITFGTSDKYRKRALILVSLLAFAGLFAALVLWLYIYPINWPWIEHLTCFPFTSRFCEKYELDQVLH

Flag-IRHOM2 (human) = biological target: T3, Flag-IRHOM2 (human) (UniProt Q6PJF5); assay: co-IP; THLE2 cells transfected with Flag- and HA-tagged IRHOM2 and ZDHHC3 (whole or truncated); blots with anti-HA or anti-Flag
T3 sequence: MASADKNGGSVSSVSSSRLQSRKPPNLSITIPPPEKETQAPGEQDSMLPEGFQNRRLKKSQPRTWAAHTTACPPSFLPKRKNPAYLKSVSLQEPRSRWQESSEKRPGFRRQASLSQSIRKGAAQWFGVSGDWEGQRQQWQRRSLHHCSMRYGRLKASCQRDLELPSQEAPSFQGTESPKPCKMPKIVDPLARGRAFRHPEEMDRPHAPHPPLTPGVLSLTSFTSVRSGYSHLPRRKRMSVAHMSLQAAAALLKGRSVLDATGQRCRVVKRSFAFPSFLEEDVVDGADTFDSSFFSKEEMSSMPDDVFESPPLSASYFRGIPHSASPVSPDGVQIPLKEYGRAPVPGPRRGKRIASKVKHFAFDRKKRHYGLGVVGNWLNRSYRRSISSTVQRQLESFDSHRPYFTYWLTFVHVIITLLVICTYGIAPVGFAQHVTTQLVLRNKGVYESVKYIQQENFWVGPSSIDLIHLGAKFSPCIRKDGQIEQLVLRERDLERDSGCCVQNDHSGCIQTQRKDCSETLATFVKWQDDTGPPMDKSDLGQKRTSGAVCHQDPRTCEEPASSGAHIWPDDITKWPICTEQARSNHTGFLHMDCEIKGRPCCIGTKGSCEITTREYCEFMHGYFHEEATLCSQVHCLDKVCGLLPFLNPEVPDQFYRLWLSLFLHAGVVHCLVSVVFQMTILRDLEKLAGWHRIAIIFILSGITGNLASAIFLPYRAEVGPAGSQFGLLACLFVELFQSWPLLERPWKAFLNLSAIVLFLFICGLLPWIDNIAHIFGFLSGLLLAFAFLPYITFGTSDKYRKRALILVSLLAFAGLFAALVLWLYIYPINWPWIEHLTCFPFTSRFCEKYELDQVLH

HA-IRHOM2 WT (human) = biological target: T4, HA-IRHOM2 WT (human) (UniProt Q6PJF5); assay: as above
T4 sequence: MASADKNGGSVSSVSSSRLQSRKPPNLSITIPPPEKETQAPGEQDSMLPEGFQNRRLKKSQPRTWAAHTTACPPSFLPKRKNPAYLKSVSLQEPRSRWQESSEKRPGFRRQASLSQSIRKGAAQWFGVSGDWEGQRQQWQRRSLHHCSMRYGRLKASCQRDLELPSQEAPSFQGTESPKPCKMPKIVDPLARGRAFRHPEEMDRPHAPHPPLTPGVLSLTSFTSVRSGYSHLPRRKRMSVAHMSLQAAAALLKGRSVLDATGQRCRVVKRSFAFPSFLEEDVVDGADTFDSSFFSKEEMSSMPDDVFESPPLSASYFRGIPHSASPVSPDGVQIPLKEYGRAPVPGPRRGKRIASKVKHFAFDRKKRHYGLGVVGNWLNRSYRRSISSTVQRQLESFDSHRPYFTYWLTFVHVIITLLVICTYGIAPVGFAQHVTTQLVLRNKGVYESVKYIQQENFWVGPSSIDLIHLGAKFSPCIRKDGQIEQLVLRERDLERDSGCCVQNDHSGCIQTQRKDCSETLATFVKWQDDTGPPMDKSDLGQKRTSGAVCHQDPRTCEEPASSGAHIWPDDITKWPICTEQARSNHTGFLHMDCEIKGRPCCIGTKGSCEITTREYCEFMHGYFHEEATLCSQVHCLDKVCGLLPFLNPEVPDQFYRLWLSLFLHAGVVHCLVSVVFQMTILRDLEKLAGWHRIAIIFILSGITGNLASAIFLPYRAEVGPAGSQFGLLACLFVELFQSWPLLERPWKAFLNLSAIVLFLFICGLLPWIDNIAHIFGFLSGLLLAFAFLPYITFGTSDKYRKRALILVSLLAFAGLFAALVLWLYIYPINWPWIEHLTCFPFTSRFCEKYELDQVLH

[3] = biological target: T1, IRHOM2 C476A mutant (human); assay: co-IP; Co-IP of IRHOM2 (WT or C476A) from THLE2 cells, blots for partner proteins; with or without ZDHHC3, 2-BP, ZDHHC3 knockout or ZDHHC3 C157A; remark: listed apart in the source

binding [1]: binds
Molecule: STING (from UniProt Q86WV6 1-379)

binding [2]: binds
B1: MAP3K7 (enzyme, UniProt O43318 1-606)
chain: MSTASAASSSSSSSAGEMIEAPSQVLNFEEIDYKEIEVEEVVGRGAFGVVCKAKWRAKDVAIKQIESESERKAFIVELRQLSRVNHPNIVKLYGACLNPVCLVMEYAEGGSLYNVLHGAEPLPYYTAAHAMSWCLQCSQGVAYLHSMQPKALIHRDLKPPNLLLVAGGTVLKICDFGTACDIQTHMTNNKGSAAWMAPEVFEGSNYSEKCDVFSWGIILWEVITRRKPFDEIGGPAFRIMWAVHNGTRPPLIKNLPKPIESLMTRCWSKDPSQRPSMEEIVKIMTHLMRYFPGADEPLQYPCQYSDEGQSNSATSTGSFMDIASTNTSNKSDTNMEQVPATNDTIKRLESKLLKNQAKQQSESGRLSLGASRGSSVESLPPTSEGKRMSADMSEIEARIAATTAYSKPKRGHRKTASFGNILDVPEIVISGNGQPRRRSIQDLTVTGTEPGQVSSRSSSPSVRMITTSGPTSEKPTRSHPWTPDDSTDTNGSDNSIPMAYLTLDHQLQPLAPCPNSKESMAVFEQHCKMAQEYMKVQTEIALLLQRKQELVAELDQDEKDQQNTSRLVQEHKKLLDENKSLSTYYQQCKKQLEVIRSQQQKRQGTS

binding (Flag-IRHOM2 (human)): binds
B2: HA-ZDHHC3 (enzyme, UniProt Q9NYG2 1-299)
chain: MMLIPTHHFRNIERKPEYLQPEKCVPPPYPGPVGTMWFIRDGCGIACAIVTWFLVLYAEFVVLFVMLIPSRDYVYSIINGIVFNLLAFLALASHCRAMLTDPGAVPKGNATKEFIESLQLKPGQVVYKCPKCCSIKPDRAHHCSVCKRCIRKMDHHCPWVNNCVGENNQKYFVLFTMYIALISLHALIMVGFHFLHCFEEDWTKCSSFSPPTTVILLILLCFEGLLFLIFTSVMFGTQVHSICTDETGIEQLKKEERRWAKKTKWMNMKAVFGHPFSLGWASPFATPDQGKADPYQYVV

binding (HA-IRHOM2 WT (human)): binds
B3: Flag-ZDHHC3 WT (enzyme, UniProt Q9NYG2 1-299)
chain: MMLIPTHHFRNIERKPEYLQPEKCVPPPYPGPVGTMWFIRDGCGIACAIVTWFLVLYAEFVVLFVMLIPSRDYVYSIINGIVFNLLAFLALASHCRAMLTDPGAVPKGNATKEFIESLQLKPGQVVYKCPKCCSIKPDRAHHCSVCKRCIRKMDHHCPWVNNCVGENNQKYFVLFTMYIALISLHALIMVGFHFLHCFEEDWTKCSSFSPPTTVILLILLCFEGLLFLIFTSVMFGTQVHSICTDETGIEQLKKEERRWAKKTKWMNMKAVFGHPFSLGWASPFATPDQGKADPYQYVV

binding [3]: binds
binding [2]: binds
B4: FRMD8 (protein, UniProt Q9BZ67 1-464)
chain: MDGTEGSAGQPGPAERSHRSSVSSVGARAADVLVYLADDTVVPLAVENLPSLSAHELHRAVREVLQLPDIALDVFALWLVSPLLEVQLKPKHQPYKLGRQWPELLLRFTSAPDDDVAMDEPFLQFRRNVFFPKRRELQIHDEEVLRLLYEEAKGNVLAARYPCDVEDCEALGALVCRVQLGPYQPGRPAACDLREKLDSFLPAHLCKRGQSLFAALRGRGARAGPGEQGLLNAYRQVQEVSSDGGCEAALGTHYRAYLLKCHELPFYGCAFFHGEVDKPAQGFLHRGGRKPVSVAISLEGVHVIDSREKHVLLGLRFQELSWDHTSPEEEEPILWLEFDGDSEGTPVNKLLKIYSKQAELMSSLIEYCIELSQAAEPAGPQDSATGSPSDPSSSLAPVQRPKLRRQGSVVSSRIQHLSTIDYVEDGKGIRRVKPKRTTSFFSRQLSLGQGSYTVVQPGDSLEQG
